Data from the supplement of paper PMC12889115.
The other results are listed elsewhere or left out. These are raw signals, not scaled to a control.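 Primary screen: polymyxin B was added at a level permeabilizing Salmonella outer membranes while sparing inner membranes. DMSO wells, both with and without polymyxin B, established maximum growth. Plate-to-plate variation meant each plate was ranked on its own, and the lowest-OD600 compounds were selected as hits.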

Test system: Salmonella enterica serovar Typhimurium SL1344
Assay: bacterial growth OD600 after 18 h with compound and polymyxin B; higher = more bacterial growth (less inhibition)
Conditions: 50 µM, Mueller-Hinton broth

SMILES | bacterial growth OD600 (polymyxin B 1 µg/mL) | bacterial growth OD600 (polymyxin B 0.75 µg/mL)
CC(=O)Nc1ccnn1C1CCN(Cc2cccc(OC3CCCC3)c2)CC1 | 1.06 | 
O=C(CCn1cccn1)N1CCCC(CCc2ccc(F)c(F)c2)C1 (stereo not given) |  | 0.475
CCC(=O)N[C@@H]1c2ccccc2C2(CCN(Cc3cc(F)cc(F)c3)CC2)[C@H]1OCCOC |  | 0.908
COc1ccc(C(=O)N(C)C2CCCN(CCc3ccccc3)C2)cc1OC (stereo not given) | 0.994 | 
COCc1ccc(CN2CCc3c(C(=O)N4CCCCC4C(=O)OC)c(OC)cc(=O)n3CC2)o1 (stereo not given) |  | 0.835
CCc1ccc(CN2CCc3c(C(=O)NCc4ccccc4OC)c(OC)cc(=O)n3CC2)o1 |  | 0.785
Cc1cccc(C(=O)N2CCCC(N3CCN(c4cccc(Cl)c4)CC3)C2)c1 (stereo not given) | 0.877 | 
COc1cccc(CN2C[C@@H]3C[C@@H](c4ccc(OC)c(C)c4)N4CCC[C@@]34C2=O)c1 | 1.09 | 
CCCNC(=O)N1CCCC1C(=O)Nc1ccccc1-c1ccc(OC)cc1 (stereo not given) | 0.845 | 
CC(C)(C)NC(=O)NC1CC(=O)N(Cc2ccccc2C(F)(F)F)C1 (stereo not given) | 0.725 | 
Cc1c(CN2C[C@H]3OC(=O)N(CCc4ccc(F)cc4)[C@H]3C2)cnn1C |  | 0.835
CC(C)c1noc(CN(C)c2ccc(-c3nc(C(C)C)no3)cn2)n1 |  | 0.526
CC(c1ccon1)N(C)C(=O)CC1(c2ccccc2)CC(=O)N(Cc2ccc3c(c2)OCO3)C1=O (stereo not given) |  | 0.044
O=C(CC(c1cccc(O)c1)c1ccccc1Cl)NCc1ccccn1 (stereo not given) | 0.953 | 
CCN(CCn1cccn1)C(=O)CCc1nnc(Cc2c[nH]c3ccccc23)o1 | 0.803 | 
COc1ccc(C(CC(=O)N2CCCN(C(C)=O)CC2)c2ccccc2)cc1 (stereo not given) | 0.801 | 
CC(=O)NCC(=O)NC(C)c1cnc(N(C)C2CCCCC2)nc1C (stereo not given) | 0.924 | 
O=C(/C=C/c1ccco1)NC1CCCN(CCc2ccccc2)C1 (stereo not given) | 0.88 | 
CCOC(=O)N1CCN(C2CCCN(C/C(C)=C/c3ccco3)C2)CC1 (stereo not given) | 1.21 | 
CCOC(=O)C1(CCOc2ccccc2)CCCN(C(=O)c2ccc(CN(C)C)o2)C1 (stereo not given) | 0.985 | 
COc1ccccc1OCC(=O)NCC1CCCN(Cc2csc(C(C)=O)c2)C1 (stereo not given) | 0.961 | 
CCN(CCn1cccn1)C(=O)C1CCC(=O)N(CCCN2CCOCC2)C1 (stereo not given) | 0.817 | 
Cc1ccccc1-c1cc2c(c(OCC3CCOC3)c1)OCCN(Cc1cccc3cccnc13)C2 (stereo not given) |  | 0.002
COC(=O)C1CCCCN1Cc1cnc(S(=O)(=O)Cc2ccccc2)n1CC(C)C (stereo not given) | 0.042 | 
O=C(NCC1(c2ccccc2)CCCC1)C1CCC(=O)N(Cc2ccccn2)C1 (stereo not given) | 1.11 | 
COc1cc(CN2CCC(C(Cc3ccccc3Cl)N(C)C(=O)c3ccco3)CC2)ccc1F (stereo not given) |  | 0.722
Cn1cc(CN2CCN(C(=O)c3cccs3)CC2)c(-c2ccc3c(c2)OCCO3)n1 | 0.742 | 
CCOC(=O)C1(Cc2ccc(F)cc2F)CCCN(C(=O)c2cc(C3CC3)on2)C1 (stereo not given) | 0.495 | 
O=C(NCCCN1CCOCC1)c1ccc2nc(C3CCCCC3)oc2c1 | 0.857 | 
CSc1ncccc1C(=O)NCc1ccc2[nH]c(C)c(C)c2c1 |  | 0.776

Among those listed so far, these have four or more nitrogen atoms.
SMILES | bacterial growth OD600 (polymyxin B 1 µg/mL) | bacterial growth OD600 (polymyxin B 0.75 µg/mL)
CC(=O)Nc1ccnn1C1CCN(Cc2cccc(OC3CCCC3)c2)CC1 | 1.06 | 
Cc1c(CN2C[C@H]3OC(=O)N(CCc4ccc(F)cc4)[C@H]3C2)cnn1C |  | 0.835
CC(C)c1noc(CN(C)c2ccc(-c3nc(C(C)C)no3)cn2)n1 |  | 0.526
CCN(CCn1cccn1)C(=O)CCc1nnc(Cc2c[nH]c3ccccc23)o1 | 0.803 | 
CC(=O)NCC(=O)NC(C)c1cnc(N(C)C2CCCCC2)nc1C (stereo not given) | 0.924 | 
CCN(CCn1cccn1)C(=O)C1CCC(=O)N(CCCN2CCOCC2)C1 (stereo not given) | 0.817 | 
Cn1cc(CN2CCN(C(=O)c3cccs3)CC2)c(-c2ccc3c(c2)OCCO3)n1 | 0.742 | 
